From US20220074941A1, “HSP90 COMBINATION THERAPY” (Sloan-Kettering Institute for Cancer Research, priority 2011, published 2022) come the findings set out here.

This data set has as its system Hsp90 complexes in K562 cell extract. The data set can be described thus: Nano-LC-MS/MS of PU-beads pull-downs. Type of data set: binding. The settings on record: for Matched Peptides by Fraction JA05: Run1, gel size cut 60-80; for Matched Peptides by Fraction JA12: Run2, gel size cut 60-80; for MAXIMUM matched peptides: maximum over fractions JA01-JA14; for Total fmol: protein isolated in PU-beads pull-downs, Waters Xevo QTof MS; for Matched Peptides by Fraction JA03: Run1, gel size cut 110-150; for Matched Peptides by Fraction JA10: Run2, gel size cut 110-150; for Matched Peptides by Fraction JA07: Run1, gel size cut <40; for Matched Peptides by Fraction JA14: Run2, gel size cut <40. In outline:
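Proteins were identified by data-dependent nano LC-MS/MS (QTof, ESI) and Mascot searching (p<0.05), then reported as spectral counts and coverage via Scaffold. Inputs were PU-bead versus control-bead pull-downs from lysate pre-cleared with control beads overnight at 4 °C, eluted by boiling in 2% SDS.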

B1: 5′-AMP-activated protein kinase catalytic subunit alpha-1; PRKAA1 (protein, UniProt Q13131 1-559, looked up)
5'-AMP-activated protein …: MRRLSSWRKMATAEKQKHDGRVKIGHYILGDTLGVGTFGKVKVGKHELTGHKVAVKILNRQKIRSLDVVGKIRREIQNLKLFRHPHIIKLYQVISTPSDIFMVMEYVSGGELFDYICKNGRLDEKESRRLFQQILSGVDYCHRHMVVHRDLKPENVLLDAHMNAKIADFGLSNMMSDGEFLRTSCGSPNYAAPEVISGRLYAGPEVDIWSSGVILYALLCGTLPFDDDHVPTLFKKICDGIFYTPQYLNPSVISLLKHMLQVDPMKRATIKDIREHEWFKQDLPKYLFPEDPSYSSTMIDDEALKEVCEKFECSEEEVLSCLYNRNHQDPLAVAYHLIIDNRRIMNEAKDFYLATSPPDSFLDDHHLTRPHPERVPFLVAETPRARHTLDELNPQKSKHQGVRKAKWHLGIRSQSRPNDIMAEVCRAIKQLDYEWKVVNPYYLRVRRKNPVTSTYSKMSLQLYQVDSRTYLLDFRSIDDEITEAKSGTATPQRSGSVSNYRSCQRSDSDAEAQGKSSEVSLTSSVTSLDSSPVDLTPRPGSHTIEFFEMCANLIKILAQ
For B1, the Total fmol is 11.2910 fmol. Also, under “PU-beads pull-down”, the “Matched Peptides by Fraction JA05” value was determined as 12, the “Matched Peptides by Fraction JA12” value amounted to 9 and the MAXIMUM matched peptides is given as 12.

B2: Serine/threonine-protein kinase Nek9 (protein, UniProt Q8TD19 2-979, looked up)
Serine/threonine-protein …: SVLGEYERHCDSINSDFGSESGGCGDSSPGPSASQGPRAGGGAAEQEELHYIPIRVLGRGAFGEATLYRRTEDDSLVVWKEVDLTRLSEKERRDALNEIVILALLQHDNIIAYYNHFMDNTTLLIELEYCNGGNLYDKILRQKDKLFEEEMVVWYLFQIVSAVSCIHKAGILHRDIKTLNIFLTKANLIKLGDYGLAKKLNSEYSMAETLVGTPYYMSPELCQGVKYNFKSDIWAVGCVIFELLTLKRTFDATNPLNLCVKIVQGIRAMEVDSSQYSLELIQMVHSCLDQDPEQRPTADELLDRPLLRKRRREMEEKVTLLNAPTKRPRSSTVTEAPIAVVTSRTSEVYVWGGGKSTPQKLDVIKSGCSARQVCAGNTHFAVVTVEKELYTWVNMQGGTKLHGQLGHGDKASYRQPKHVEKLQGKAIRQVSCGDDFTVCVTDEGQLYAFGSDYYGCMGVDKVAGPEVLEPMQLNFFLSNPVEQVSCGDNHVVVLTRNKEVYSWGCGEYGRLGLDSEEDYYTPQKVDVPKALIIVAVQCGCDGTFLLTQSGKVLACGLNEFNKLGLNQCMSGIINHEAYHEVPYTTSFTLAKQLSFYKIRTIAPGKTHTAAIDERGRLLTFGCNKCGQLGVGNYKKRLGINLLGGPLGGKQVIRVSCGDEFTIAATDDNHIFAWGNGGNGRLAMTPTERPHGSDICTSWPRPIFGSLHHVPDLSCRGWHTILIVEKVLNSKTIRSNSSGLSIGTVFQSSSPGGGGGGGGGEEEDSQQESETPDPSGGFRGTMEADRGMEGLISPTEAMGNSNGASSSCPGWLRKELENAEFIPMPDSPSPLSAAFSESEKDTLPYEELQGLKVASEAPLEHKPQVEASSPRLNPAVTCAGKGTPLTPPACACSSLQVEVERLQGLVLKCLAEQQKLQQENLQIFTQLQKLNKKLEGGQQVGMHSKGTQTAKEEMEMDPKPDLDSDSWCLLGTDSCRPSL
For B2, the Total fmol was found to be 5.5558 fmol. Besides, under “PU-beads pull-down”, the “Matched Peptides by Fraction JA03” value is reported as 5, the “Matched Peptides by Fraction JA10” value is 11 and the MAXIMUM matched peptides amounted to 11.

B3: Calpain small subunit 1; CAPNS1 (protein, UniProt P04632 1-268, looked up)
Calpain small subunit 1: MFLVNSFLKGGGGGGGGGGGLGGGLGNVLGGLISGAGGGGGGGGGGGGGGGGGGGGTAMRILGGVISAISEAAAQYNPEPPPPRTHYSNIEANESEEVRQFRRLFAQLAGDDMEVSATELMNILNKVVTRHPDLKTDGFGIDTCRSMVAVMDSDTTGKLGFEEFKYLWNNIKRWQAIYKQFDTDRSGTICSSELPGAFEAAGFHLNEHLYNMIIRRYSDESGNMDFDNFISCLVRLDAMFRAFKSLDKDGTGQIQVNIQEWLQLTMYS
B3 gave a Total fmol of 10.0635 fmol. Further, for the setting “PU-beads pull-down”, the “Matched Peptides by Fraction JA07” value came to 9, the “Matched Peptides by Fraction JA14” value was 6 and the MAXIMUM matched peptides stood at 9.

B4: Transforming growth factor beta regulator 4 (protein, UniProt Q969Z0 108-631, looked up)
FAST kinase domain-containing …: SHLLSEKPEDKGLLIQDAHFHQLLCLLNSQIASVWHGTLSKLLGSLYALGIPKASKELQSVEQEVRWRMRKLKYKHLAFLAESCATLSQEQHSQELLAELLTHLERRWTEIEDSHTLVTVMMKVGHLSEPLMNRLEDKCLELVEHFGPNELRKVLVMLAAQSRRSVPLLRAISYHLVQKPFSLTKDVLLDVAYAYGKLSFHQTQVSQRLATDLLSLMPSLTSGEVAHCAKSFALLKWLSLPLFEAFAQHVLNRAQDITLPHLCSVLLAFARLNFHPDQEDQFFSLVHEKLGSELPGLEPALQVDLVWALCVLQQAREAELQAVLHPEFHIQFLGGKSQKDQNTFQKLLHINATALLEYPEYSGPLLPASAVAPGPSALDRKVTPLQKELQETLKGLLGSADKGSLEVATQYGWVLDAEVLLDSDGEFLPVRDFVAPHLAQPTGSQSPPPGSKRLAFLRWEFPNFNSRSKDLLGRFVLARRHIVAAGFLIVDVPFYEWLELKSEWQKGAYLKDKMRKAVAEELAK
The molecule B4 had a Total fmol of 7.4653 fmol. For the setting “PU-beads pull-down”, the “Matched Peptides by Fraction JA05” value amounted to 14, the “Matched Peptides by Fraction JA12” value is 14 and the MAXIMUM matched peptides is listed as 14.

B5: N-acetyltransferase 10; NAT10 (protein, UniProt Q9H0A0 1-1025, looked up)
RNA cytidine acetyltransferase: MHRKKVDNRIRILIENGVAERQRSLFVVVGDRGKDQVVILHHMLSKATVKARPSVLWCYKKELGFSSHRKKRMRQLQKKIKNGTLNIKQDDPFELFIAATNIRYCYYNETHKILGNTFGMCVLQDFEALTPNLLARTVETVEGGGLVVILLRTMNSLKQLYTVTMDVHSRYRTEAHQDVVGRFNERFILSLASCKKCLVIDDQLNILPISSHVATMEALPPQTPDESLGPSDLELRELKESLQDTQPVGVLVDCCKTLDQAKAVLKFIEGISEKTLRSTVALTAARGRGKSAALGLAIAGAVAFGYSNIFVTSPSPDNLHTLFEFVFKGFDALQYQEHLDYEIIQSLNPEFNKAVIRVNVFREHRQTIQYIHPADAVKLGQAELVVIDEAAAIPLPLVKSLLGPYLVFMASTINGYEGTGRSLSLKLIQQLRQQSAQSQVSTTAENKTTTTARLASARTLYEVSLQESIRYAPGDAVEKWLNDLLCLDCLNITRIVSGCPLPEACELYYVNRDTLFCYHKASEVFLQRLMALYVASHYKNSPNDLQMLSDAPAHHLFCLLPPVPPTQNALPEVLAVIQVCLEGEISRQSILNSLSRGKKASGDLIPWTVSEQFQDPDFGGLSGGRVVRIAVHPDYQGMGYGSRALQLLQMYYEGRFPCLEEKVLETPQEIHTVSSEAVSLLEEVITPRKDLPPLLLKLNERPAERLDYLGVSYGLTPRLLKFWKRAGFVPVYLRQTPNDLTGEHSCIMLKTLTDEDEADQGGWLAAFWKDFRRRFLALLSYQFSTFSPSLALNIIQNRNMGKPAQPALSREELEALFLPYDLKRLEMYSRNMVDYHLIMDMIPAISRIYFLNQLGDLALSAAQSALLLGIGLQHKSVDQLEKEIELPSGQLMGLFNRIIRKVVKLFNEVQEKAIEEQMVAAKDVVMEPTMKTLSDDLDEAAKEFQEKHKKEVGKLKSMDLSEYIIRGDDEEWNEVLNKAGPNASIISLKSDKKRKLEAKQEPKQSKKLKNRETKNKKDMKLKRKK
Turning to B5, the Total fmol was 3.0039 fmol. Moreover, where the note is “PU-beads pull-down”, the “Matched Peptides by Fraction JA03” value is reported as 4, the “Matched Peptides by Fraction JA10” value is reported as 14 and the MAXIMUM matched peptides is listed as 14.

B6: Serine protease HTRA2 (protein, UniProt O43464 134-458, looked up)
Serine protease HTRA2, …: AVPSPPPASPRSQYNFIADVVEKTAPAVVYIEILDRHPFLGREVPISNGSGFVVAADGLIVTNAHVVADRRRVRVRLLSGDTYEAVVTAVDPVADIATLRIQTKEPLPTLPLGRSADVRQGEFVVAMGSPFALQNTITSGIVSSAQRPARDLGLPQTNVEYIQTDAAIDFGNSGGPLVNLDGEVIGVNTMKVTAGISFAIPSDRLREFLHRGEKKNSSSGISGSQRRYIGVMMLTLSPSILAELQLREPSFPDVQHGVLIHKVILGSPAHRAGLRPGDVILAIGEQMVQNAEDVYEAVRTQSQLAVQIRRGRETLTLYVTPEVTE
As to B6, the Total fmol came to 8.0093 fmol. Where the note is “PU-beads pull-down”, the “Matched Peptides by Fraction JA07” value is given as 6, the “Matched Peptides by Fraction JA14” value came out at 6 and the MAXIMUM matched peptides was found to be 6.

B7: Histone acetyltransferase type B catalytic subunit; HAT1 (protein, UniProt O14929 2-419, looked up)
Histone acetyltransferase …: AGFGAMEKFLVEYKSAVEKKLAEYKCNTNTAIELKLVRFPEDLENDIRTFFPEYTHQLFGDDETAFGYKGLKILLYYIAGSLSTMFRVEYASKVDENFDCVEADDVEGKIRQIIPPGFCTNTNDFLSLLEKEVDFKPFGTLLHTYSVLSPTGGENFTFQIYKADMTCRGFREYHERLQTFLMWFIETASFIDVDDERWHYFLVFEKYNKDGATLFATVGYMTVYNYYVYPDKTRPRVSQMLILTPFQGQGHGAQLLETVHRYYTEFPTVLDITAEDPSKSYVKLRDFVLVKLCQDLPCFSREKLMQGFNEDMVIEAQQKFKINKQHARRVYEILRLLVTDMSDAEQYRSYRLDIKRRLISPYKKKQRDLAKMRKCLRPEELTNQMNQIEISMQHEQLEESFQELVEDYRRVIERLAQE
The molecule B7 had a Total fmol of 10.9424 fmol. For the same molecule, the “Matched Peptides by Fraction JA06” value (PU-beads pull-down, Run1, gel size cut 40-60) came out at 4. For the same molecule, where the note is “PU-beads pull-down, Run2, gel size cut 40-60”, the “Matched Peptides by Fraction JA13” value is given as 18. Further, under “PU-beads pull-down”, the MAXIMUM matched peptides was determined as 18.

B8: THUMP domain-containing protein 3 (protein, UniProt Q9BV44 1-507, looked up)
tRNA …: MCDIEEATNQLLDVNLHENQKSVQVTESDLGSESELLVTIGATVPTGFEQTAADEVREKLGSSCKISRDRGKIYFVISVESLAQVHCLRSVDNLFVVVQEFQDYQFKQTKEEVLKDFEDLAGKLPWSNPLKVWKINASFKKKKAKRKKINQNSSKEKINNGQEVKIDQRNVKKEFTSHALDSHILDYYENPAIKEDVSTLIGDDLASCKDETDESSKEETEPQVLKFRVTCNRAGEKHCFTSNEAARDFGGAVQDYFKWKADMTNFDVEVLLNIHDNEVIVGIALTEESLHRRNITHFGPTTLRSTLAYGMLRLCDPLPYDIIVDPMCGTGAIPIEGATEWSDCFHIAGDNNPLAVNRAANNIASLLTKSQIKEGKPSWGLPIDAVQWDICNLPLRTGSVDIIVTDLPFGKRMGSKKRNWNLYPACLREMSRVCTPTTGRAVLLTQDTKCFTKALSGMRHVWRKVDTVWVNVGGLRAAVYVLIRTPQAFVHPSEQDGERGTLWQCKE
Molecule B8 had a Total fmol of 15.3092 fmol. Under “PU-beads pull-down”, the “Matched Peptides by Fraction JA05” value was determined as 18, the “Matched Peptides by Fraction JA12” value is reported as 19 and the MAXIMUM matched peptides turned out to be 19.
